In publication PMC7024268 one finds binding data, which are given here for five molecules.

Results are given in words; binding and its absence hold for the method and conditions named. Binding seen in cells or lysates may run through a third protein. Some binding calls cover weakened binding; strength is not graded here.

In this experiment the target is T1, PP5 (human (endogenous in HEK293)) (UniProt P53041).
T1 sequence: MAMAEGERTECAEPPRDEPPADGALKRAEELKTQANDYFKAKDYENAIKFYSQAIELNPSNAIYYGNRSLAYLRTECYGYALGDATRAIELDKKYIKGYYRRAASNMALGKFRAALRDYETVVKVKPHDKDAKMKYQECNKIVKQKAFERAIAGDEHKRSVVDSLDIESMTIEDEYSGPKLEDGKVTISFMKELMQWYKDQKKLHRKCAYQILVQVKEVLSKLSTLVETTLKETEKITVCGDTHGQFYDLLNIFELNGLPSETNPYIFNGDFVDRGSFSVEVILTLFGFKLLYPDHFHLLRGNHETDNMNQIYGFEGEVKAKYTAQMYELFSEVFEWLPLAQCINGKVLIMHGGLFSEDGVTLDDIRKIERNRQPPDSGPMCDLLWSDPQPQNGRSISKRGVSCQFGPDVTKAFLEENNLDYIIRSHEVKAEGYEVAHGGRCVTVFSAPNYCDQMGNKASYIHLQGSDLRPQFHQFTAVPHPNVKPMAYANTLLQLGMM
Description: co-IP; synthetic peptides added at 1 or 10 µM to HEK293 cells for 24 h; IP of Cdc37 from the lysate and immunoblot; binding of the peptide is read from the loss of the partner from the Cdc37 precipitate; only the binder purified. On the technique in general: In western blotting, separated proteins are transferred to a membrane and probed.
For the molecule LSKDGFSKSMVN (C-terminal amide) [Cdc37p4], the binding entry is “binds”.

With NYSVWDHIEVEDDLSKDGFSKSMVN (C-terminal amide) [Cdc37p3], the binding entry is “binds”.

Regarding NYSVWDHIEVDDDLSKDGFSKSMVN (C-terminal amide) [Cdc37p2], the binding result was “binds”.

As to PSKDIFLKSMIN (C-terminal amide) [Cdc37p5], the binding entry is “binds”.

Take NYSVWDHIEVSDDLSKDGFSKSMVN (C-terminal amide) [Cdc37p1]: the binding entry is recorded as “binds”.
